Test results published in publication PMC3910116, “Super Spy variants implicate flexibility in chaperone action” (eLife, 2014).
No constants are given. Whether binding was seen depends on the method and setting. Some entries that bind do so weakly or less than the wild type.

Sequences of proteins named here, by UniProt entry; tags and fusion partners are left off. Residues count along the entry.
UniProt Q03708, residues 6-45: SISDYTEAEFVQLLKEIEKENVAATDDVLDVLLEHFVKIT

Legend:
[1] = biological target: Im7 7-45 peptide (UniProt Q03708); assay: cross-linking; EDC (zero-length, carboxyl/amine reactive), 30 mM; 26 µM Spy and 26 µM equimolar unlabelled and 15N-labelled Im7 7-45 in PBS pH 7.4, 30 min at 25°C; LC-MS/MS; both purified
[2] = biological target: Im7 7-45 peptide (UniProt Q03708); assay: cross-linking; PICUP (zero-length, tyrosine reactive); 26 µM Spy and 26 µM equimolar unlabelled and 15N-labelled Im7 7-45 in PBS pH 7.4; LC-MS/MS; both purified
[3] = biological target: Im7 7-45 peptide (UniProt Q03708); assay: cross-linking; ABAS-12C6/13C6 (photo-reactive, 7 Å), 100 nM; Spy and Im7 7-45 both 26 µM in PBS pH 7.4, 30 min at 25°C then 10 min UV; LC-MS/MS; both purified
[4] = biological target: Im7 7-45 peptide (UniProt Q03708); assay: cross-linking; CBDPS-H8/D8 (amine-reactive, 14 Å), 50 µM; Spy and Im7 7-45 both 26 µM in PBS pH 7.4, 30 min at 25°C; trypsin or proteinase K digest, avidin enrichment, LC-MS/MS; both purified
[5] = biological target: Im7 7-45 peptide (UniProt Q03708); assay: HDX-MS; top-down ECD-FTICR-MS; 25 µM Spy (dimer) and 100 µM Im7 peptide (1:4), 10 mM ammonium acetate, 80% D2O, labelling time 10 s; both purified

Measured: binding

B1: Spy (wild type) (protein, UniProt P77754 24-161)
chain: SADTTTAAPADAKPMMHHKGKFGPHQDMMFKDLNLTDAQKQQIREIMKGQRDQMKRPPLEERRAMHDIIASDTFDKVKAEAQIAKMEEQRKANMLAHMETQNKIYNILTPEQKKQFNANFEKRLTERPAAKGKMPATAE
binds: [1] | [2] | [3] | [4] | [5]
